According to article PMC2703783:
These are yes or no findings as the source states them, for the method shown. In cells and extracts the contact can be indirect. A yes stands for co-enrichment or nearness to the bait. Other partners may have been found.

Biological target: T1, SpoIIIAG (Bacillus subtilis (endogenous in sporulating B. subtilis cells)) (UniProt P49784)
T1 sequence: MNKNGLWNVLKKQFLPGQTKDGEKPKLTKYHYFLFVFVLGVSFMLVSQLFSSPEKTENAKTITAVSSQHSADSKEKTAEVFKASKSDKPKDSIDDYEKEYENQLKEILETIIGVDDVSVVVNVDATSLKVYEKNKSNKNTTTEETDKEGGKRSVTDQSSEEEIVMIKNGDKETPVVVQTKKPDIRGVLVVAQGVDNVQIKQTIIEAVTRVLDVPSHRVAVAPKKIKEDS
Experiment: affinity purification with mass spectrometry; immunoprecipitate on anti-SpoIIIAG antibody resin from DDM-solubilized membranes, trypsinized, LC-MS (LCQ DECA ion trap)

- binding: binds
B1: SpoIIIAB (protein, UniProt Q01368 1-171)
chain: MLKLLGAVFIVVATTWTGFEMAKIYTERPRQIRQLRAALQSLEAEIMYGHTPLHTASQQIAKQLAQPVSTLFSAFSDQLDKGSDSAKTAWEQSLKKVWDTLSLKKSEYEVLKQFGETLGIHDRISQQKHIKLALTHLEASEADAEQAQAKNEKMIKSLGFLAGLLLILLLM
